# Source: PubChem BioAssay (Tox21)
# This list holds what a sample rich in hits left over. Records with an inconclusive call do not appear. The source made the active and inactive calls. Unless noted, calls come from the whole dose curve; as a rule, active = well fitted curve in the direction sought with a large enough effect in the repeat runs; inconclusive = weak or mixed curves; inactive = no such curve, though single readings can be large; an effect the other way counts as inactive or inconclusive.
# Experiment: qHTS assay to identify small molecule antagonists of the androgen receptor (AR) signaling pathway using the MDA cell line - cell viability counter screen (AID 743041; note: nearly all actives have a fitted effect of over 45% in size)
# Settings: MDA-kb2 viability, CellTiter-Fluor, 16 h; at 70.3 µM (top of the series); cells co-treated with R1881 androgen agonist
# Procedure, shortened: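 MDA-kb2 AR-luc human breast carcinoma cells (MMTV-luciferase, AR/GR responsive) were treated with compounds plus R1881 agonist for 16 h at 37 °C. Viability was read as CellTiter-Fluor fluorescence in the same wells as the reporter assay.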
# % is set by controls: 0 for no effect and ±100 for the full control effect.
row,SMILES,"viability change, negative = cytotoxic"
1,COc1ccc2ccccc2c1,inactive: 1.1%
2,CC(=O)N(C)C,inactive: -14.2%
3,CS(=O)(=O)c1ccc([C@@H](CC2CCCC2)C(=O)Nc2cnccn2)cc1Cl,inactive: 7.75%

# Experiment: qHTS assay to identify small molecule antagonists of the estrogen receptor alpha (ER-alpha) signaling pathway - cell viability counter screen (AID 743074; calls by dose curve;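 note: HEK293 cells carrying ER-alpha-UAS-bla reporter stimulated with 17beta-estradiol; nearly all actives have a fitted effect of over 45% in size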)
# Settings: ERalpha-bla HEK293 viability, CellTiter-Glo luminescence, 18 h; at 69.4 µM (top of the series) unless noted
row,SMILES,"activity, negative = cytotoxicity"
1,COc1ccc2ccccc2c1,inactive: -10.2%
2,CCCCCCCC1CCC(=O)O1 (stereo not given),inactive: 10.5%
3,CC(=O)N(C)C,inactive: -5.82% [at 79.1 µM]
4,CS(=O)(=O)c1ccc([C@@H](CC2CCCC2)C(=O)Nc2cnccn2)cc1Cl,inactive: 13.6%

# Experiment: qHTS assay to identify small molecule antagonists of the estrogen receptor alpha (ER-alpha) signaling pathway using the BG1 cell line - cell viability counter screen (AID 743081);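 note: compound given together with 17beta-estradiol as the ER stimulus; nearly all actives have a fitted effect of over 45% in size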
# Settings: BG1Luc4E2 viability, CellTiter-Fluor, 22 h; at 70.3 µM (top of the series)
row,SMILES,"activity change, negative = cytotoxicity"
1,COc1ccc2ccccc2c1,inactive: 4.23%
2,CCCCCCCC1CCC(=O)O1 (stereo not given),inactive: 5.77%
3,CC(=O)N(C)C,inactive: 6.09%

# Experiment: qHTS assay to identify aromatase inhibitors - cell viability counter screen (AID 743084);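 note: cells stimulated with testosterone during compound exposure; nearly all actives have a fitted effect of over 55% in size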
# Settings: MCF-7 aro ERE viability, CellTiter-Fluor, 24 h; at 70.3 µM (top of the series)
row,SMILES,"activity change, negative = cytotoxicity"
1,COc1ccc2ccccc2c1,inactive: -0.465%
2,CCCCCCCC1CCC(=O)O1 (stereo not given),inactive: -7.09%
3,CC(=O)N(C)C,inactive: 5.23%

# Experiment: qHTS assay to identify small molecule that activate the aryl hydrocarbon receptor (AhR) signaling pathway - cell viability counter screen (AID 743086);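 note: HepG2 liver cells carrying the AhR DRE luciferase reporter; nearly all actives have a fitted effect of over 45% in size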
# Settings: HepG2-AhR-luc viability, CellTiter-Fluor, 24 h; at 70.3 µM (top of the series)
# Procedure, shortened: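 HepG2-AhR-luc (HG2L7.5c1) cells, 4000/well, were preincubated 5 h at 37C, exposed to compound in qHTS format for 24 hr at 37C, then given CellTiter-Fluor for 30 min; viability was read as fluorescence in the reporter wells.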
row,SMILES,"viability change, negative = cytotoxic"
1,COc1ccc2ccccc2c1,inactive: 11.9%
2,CCCCCCCC1CCC(=O)O1 (stereo not given),inactive: 9.03%
3,CC(=O)N(C)C,inactive: 8.33%

# Experiment: qHTS assay to identify small molecule antagonists of the peroxisome proliferator-activated receptor gamma (PPARg) signaling pathway - cell viability counter screen (AID 743194); note: nearly all actives have a fitted effect of over 55% in size
# Settings: PPARg-bla HEK293H viability, CellTiter-Glo luminescence, 17 h; at 62.6 µM (top of the series); co-treated with 50 nM rosiglitazone
# Procedure, shortened: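 PPARg-UAS-bla HEK293H cells were plated, rested 5 h at 37 C, then treated with compounds plus rosiglitazone (50 nM final) for 17 h at 37 C; viability was then read by CellTiter-Glo luminescence after 30 min at room temperature.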
row,SMILES,"activity change, negative = cytotoxicity"
1,COc1ccc2ccccc2c1,inactive: -2.68%
2,CCCCCCCC1CCC(=O)O1 (stereo not given),inactive: 6.29%
3,CC(=O)N(C)C,inactive: 7.54%
4,CS(=O)(=O)c1ccc([C@@H](CC2CCCC2)C(=O)Nc2cnccn2)cc1Cl,inactive: -9.22%
